These are yes or no findings as the source states them, for the method shown. Some binding calls cover weakened binding; strength is not graded here.

The assay deals with Arabidopsis thaliana 5-methylthioribose kinase (Arabidopsis thaliana) (UniProt Q9C6D2). The assay can be described thus: crystal structure; co-crystallised with ATPγS and MTR (ADP and MTR found bound); space group C2, a dimer per asymmetric unit; 1.9 Å; both purified.

B1: Arabidopsis thaliana 5-methylthioribose kinase (enzyme, UniProt Q9C6D2 1-420, looked up)
chain: MSFEEFTPLNEKSLVDYIKSTPALSSKIGADKSDDDLVIKEVGDGNLNFVFIVVGSSGSLVIKQALPYIRCIGESWPMTKERAYFEATTLRKHGNLSPDHVPEVYHFDRTMALIGMRYLEPPHIILRKGLIAGIEYPFLADHMSDYMAKTLFFTSLLYHDTTEHRRAVTEFCGNVELCRLTEQVVFSDPYRVSTFNRWTSPYLDDDAKAVREDSALKLEIAELKSMFCERAQALIHGDLHTGSVMVTQDSTQVIDPEFSFYGPMGFDIGAYLGNLILAFFAQDGHATQENDRKEYKQWILRTIEQTWNLFNKRFIALWDQNKDGPGEAYLADIYNNTEVLKFVQENYMRNLLHDSLGFGAAKMIRRIVGVAHVEDFESIEEDKRRAICERSALEFAKMLLKERRKFKSIGEVVSAIQQQS
notes: 5-methylthioribose (MTR) kinase of Arabidopsis thaliana, 420 residues; residues 1 and 420 are named as part of the crystallised protein (not modelled); also called A. thaliana MTR kinase; MTR kinase
For B1, the binding result is given as “binds”.

Source of the values: paper PMC2194712, “Structure of Arabidopsis thaliana 5-methylthioribose kinase reveals a more occluded active site than its bacterial homolog” (BMC Structural Biology, 2007).
